Assay results: PubChem BioAssay AID488837 (National Center for Advancing Translational Sciences (NCATS), 2010)
Among all 330,000 compounds or so, about 20 (0.006%) were called active. The inconclusive results got no clear call from the source; some entries with a clear call stand among them for comparison. The call rests on the fitted dose curve; in most records, active means well fitted inhibition curve with a large enough effect; inconclusive means small, poorly fitted or top-dose-only effect, or effect the other way; inactive means flat fitted curve, though single readings scatter. Where the call is inconclusive, the potency comes from a doubtful curve fit.

The chains behind the UniProt entries cited, without tags or fusion partners. Where a name states a change or a piece, a line headed by the entry shows the natural chain unless it says otherwise.
UniProt O00167: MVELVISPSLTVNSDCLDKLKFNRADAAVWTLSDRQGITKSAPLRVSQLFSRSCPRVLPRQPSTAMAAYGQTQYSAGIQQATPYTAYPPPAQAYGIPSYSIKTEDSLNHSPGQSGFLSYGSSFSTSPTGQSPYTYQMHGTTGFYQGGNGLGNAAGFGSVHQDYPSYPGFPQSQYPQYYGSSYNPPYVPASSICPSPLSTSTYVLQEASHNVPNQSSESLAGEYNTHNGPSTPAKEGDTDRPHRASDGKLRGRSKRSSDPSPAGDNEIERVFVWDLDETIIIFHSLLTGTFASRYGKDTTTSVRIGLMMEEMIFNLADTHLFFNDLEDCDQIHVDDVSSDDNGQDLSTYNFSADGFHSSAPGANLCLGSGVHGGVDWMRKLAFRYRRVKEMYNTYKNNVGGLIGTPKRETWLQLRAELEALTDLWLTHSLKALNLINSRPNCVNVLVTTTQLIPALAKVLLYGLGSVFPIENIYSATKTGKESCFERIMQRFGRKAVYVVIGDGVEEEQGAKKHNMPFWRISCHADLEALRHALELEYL

The compounds below were run against Protein phosphatase EYA2 (Homo sapiens) (UniProt O00167) (assay: qHTS Assay for Inhibitors of the Phosphatase Activity of Eya2). Details: recombinant Eya2, OMFP fluorescence dephosphorylation (OMFP is methylfluorescein phosphate); activity, negative = inhibition: at 76.9 µM (top of the series) unless noted.
In short: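 Eya2 protein (added as 0.2 uM solution) was preincubated with compound for 10 min at ambient temperature in 50 mM HEPES pH 7.5, 50 mM NaCl, 5 uM MgCl2, 0.05% BSA, 1 mM DTT. OMFP (added at 50 uM) then reacted 10 min; fluorescence read at 485/525 nm.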
On the % scale 0 is the no-effect control and ±100 the full control effect; potency means the concentration at half of the fitted maximal effect.

Row | Compound | Potency | activity, negative = inhibition
1 | CC1Sc2ccc(C(=O)N3CCCC(C(F)(F)F)C3)cc2NC1=O (stereo not given) | inconclusive: 89.1 µM [inhibitor, single point] | –
2 | CC(=O)NCCc1ccc(O)cc1 | inconclusive: 89.1 µM [inhibitor, single point] | –
3 | C=C(C)C(O)Cc1c(OC)ccc(C(=O)/C=C/c2ccc(O)cc2)c1O (stereo not given) | – | inactive: 10.3%
4 | CC(=O)c1ccc(NC(=O)C2CCN(S(=O)(=O)c3cccc4nonc34)CC2)cc1 | inconclusive: 25.1 µM [inhibitor, partial curve] | –
5 | N#Cc1c[nH]n2c(=O)cc(Cc3ccccc3)nc12 | inconclusive: 14.1 µM [inhibitor, single point] | –
6 | Cc1ccc(N=Nc2c(C)[nH]n(-c3ccccc3)c2=O)cc1Br | inconclusive: 794 µM [inhibitor, single point] | –
7 | COc1ccc(-n2c(CN3CCN(c4ccccc4OC)CC3)nc3ccc([N+](=O)[O-])cc3c2=O)c(OC)c1 | inconclusive: 22.4 µM [inhibitor, single point] | –
8 | Cc1cc(NC(=O)C2CCN(C(=O)c3ccco3)CC2)ccc1Br | – | inactive: 2.7%
9 | O=C(Nc1ccc(F)cc1F)C1CCN(C(=O)c2ccc(Br)cc2)CC1 | inconclusive: 708 µM [inhibitor, single point] | –
10 | Cc1cc(C)cc(CSCC(=O)N/N=C/c2ccc(OCC(=O)NCc3ccco3)cc2)c1 | inconclusive: 89.1 µM [inhibitor, single point] | –
11 | CCOC(=O)c1cc2c(ccn2C)n1CC(=O)N1C(C)CCCC1C (stereo not given) | inconclusive: 100 µM [inhibitor, single point] | –
12 | CNC(=O)COC(=O)c1cc2c(C)nn(-c3ccc(F)cc3)c2s1 | – | inactive: -11.5%
13 | COc1ccc(-c2nc(CS(=O)CC(=O)NC3CCCCCC3)c(C)o2)cc1 (stereo not given) | inconclusive: 25.1 µM [inhibitor, single point] | –
14 | CC1(C)CN(c2ccc(Br)cc2Br)C1=O | inconclusive: 112 µM [inhibitor, single point] | –
15 | CCc1ccc(NC(=O)C(C)n2nc(C)c([N+](=O)[O-])c2C)cc1 (stereo not given) | inconclusive: 20 µM [inhibitor, single point] | –
16 | Cc1ccc(C)c(Oc2cc(NN3CCCCC3)c([N+](=O)[O-])cc2[N+](=O)[O-])c1 | inconclusive: 25.1 µM [inhibitor, partial curve] | –
17 | O=C(O)CN=C1CC(c2ccccc2)CC(=O)/C1=C(/O)CCCN1C(=O)c2ccccc2C1=O (stereo not given) | inconclusive: 112 µM [inhibitor, single point] | –
18 | Cc1ccc(-c2[nH]c(-c3ccccc3)nc2SCC(=O)NCC2CCCO2)cc1 (stereo not given) | – | inactive: 1.22%
19 | CCc1ccc(-c2nc(CS(=O)CC(=O)NCc3ccccc3)c(C)o2)cc1 (stereo not given) | – | inactive: 9.75%
20 | CCNc1nc(NCC)nc(NC(N)=S)n1 | – | inactive: 8.3%
21 | Cc1cccc(Nc2nc(-c3ccc(F)cc3)cs2)n1 | inconclusive: 100 µM [inhibitor, single point] | –
23 | Clc1cccc2c3c([nH]c12)CCNC3 | inconclusive: 100 µM [inhibitor, single point] | –
24 | O=C(NC1=NCCS1)c1cccc(OC(F)F)c1 | inconclusive: 39.8 µM [inhibitor, partial curve] | –

Part of the list above in order of count of non-hydrogen atoms, high to low.
Row | Compound | Potency | activity, negative = inhibition
17 | O=C(O)CN=C1CC(c2ccccc2)CC(=O)/C1=C(/O)CCCN1C(=O)c2ccccc2C1=O (stereo not given) | inconclusive: 112 µM [inhibitor, single point] | –
13 | COc1ccc(-c2nc(CS(=O)CC(=O)NC3CCCCCC3)c(C)o2)cc1 (stereo not given) | inconclusive: 25.1 µM [inhibitor, single point] | –
9 | O=C(Nc1ccc(F)cc1F)C1CCN(C(=O)c2ccc(Br)cc2)CC1 | inconclusive: 708 µM [inhibitor, single point] | –

Next part.

Row | Compound | Potency | activity, negative = inhibition
25 | CC(C)NC(=O)c1ccccc1NC(=O)C(C)Oc1ccccc1 (stereo not given) | inconclusive: 100 µM [inhibitor, single point] | –
26 | CCc1cc(SC#N)ccc1N | inconclusive: 100 µM [inhibitor, single point] | –
27 | O=C(NNC(=O)C12CC3CC(CC(C3)C1)C2)c1ccccc1O | – | inactive: 13.3%
28 | Cn1c(CNC(=O)c2ccc(Cl)cc2)nnc1SCC(=O)NC1=NCCS1 | inconclusive: 20 µM [inhibitor, partial curve] | –
29 | O=S1(=O)C=C(SCc2ccc(Cl)c(Cl)c2)Nc2ccccc21 | inconclusive: 31.6 µM [inhibitor, single point] | –
30 | CCN(CC)c1ccc(NC(=O)c2ccco2)cc1 | – | inactive: 3.97%
31 | CCCNC(=O)C1CCN(S(=O)(=O)c2ccc3nc4c(c(C(=O)O)c3c2)CCCCC4)CC1 | – | inactive: 5.05%
32 | CC1=Nc2cc(C(=O)NCCCOC(C)C)ccc2Sc2ccc(C)cc21 | inconclusive: 31.6 µM [inhibitor, partial curve, poor fit] | –
33 | CCOC(=O)c1cc(=O)[nH]c2ccccc12 | inconclusive: 100 µM [inhibitor, single point] | –
34 | CC(C)n1cc(/C=C2/NC(=O)N(c3cccc(Cl)c3)C2=O)c2ccccc21 | – | inactive: -9.3%
35 | CCOc1ccc(N2CC(C(=O)OCC(=O)c3ccc(OC)cc3)CC2=O)cc1 (stereo not given) | inconclusive: 17.8 µM [inhibitor, single point] | –
36 | Cc1cc(OCC(=O)OCC(=O)Nc2ccc(Cl)cn2)ccc1Cl | inconclusive: 112 µM [inhibitor, single point] | –
37 | CCN(CC)c1ccc2cc(-c3nc4ccccc4[nH]3)c(=O)oc2c1 | inconclusive: 2.51 µM [activator, full curve] | –
38 | COc1ccc(C(=O)/C=C/c2ccc(OC)c(CN3CCOCC3)c2)cc1 | – | inactive: -3.82%
39 | O=C1C(Nc2ccccc2)=C(N2CCCCC2)C(=O)c2ccccc21 | – | inactive: -5.49%
40 | CCC1(C)Cc2ccccc2-c2nc(SC)[nH]c(=O)c21 (stereo not given) | inconclusive: 31.6 µM [inhibitor, partial curve] | –
41 | O=C(CN1CCN(Cc2ccccc2)CC1)Nc1ccc2c(c1)CCC2 | inconclusive: 89.1 µM [inhibitor, single point] | –
42 | O=S(=O)(NC(=NC1CCCCC1)c1ccccc1F)c1ccccc1 | – | inactive: -6.38%
43 | CSc1ccccc1NC(=O)CN(C)CC(=O)Nc1cccc(Br)c1 | inconclusive: 355 µM [inhibitor, partial curve] | –
44 | O=C(c1cc(-c2ccccc2)nc2ccccc12)N1CCCC1 | inconclusive: 100 µM [inhibitor, single point] | –
45 | COC(=O)c1ccccc1NC(=O)N[C@@H](C)C(=O)OC | – | inactive: -7.97%
46 | CCCC[C@@H]1CNC(=S)N1CC1CCCCC1 | inconclusive: 25.1 µM [inhibitor, single point] | –
47 | COc1ccc(/C(CC2OC(=O)c3ccccc32)=N\NC(N)=O)cc1 (stereo not given) | – | inactive: 0.565%
48 | O=S(=O)(c1ccccc1Cl)N1CCC(Cc2ccccc2)CC1 | inconclusive: 100 µM [inhibitor, single point] | –

Row | Compound | Potency | activity, negative = inhibition
49 | CC[C@]12c3[nH]c4ccccc4c3CCN1C(=O)C(CC(=O)NCCc1ccccn1)C[C@@H]2C(=O)N1CCN(C(=O)c2ccco2)CC1 (stereo not given in full) | inconclusive: 20 µM [inhibitor, partial curve] | –
50 | NCCNC(=O)c1c(NC(=O)c2ccccc2)sc2c1CCCC2 | inconclusive: 20 µM [inhibitor, single point] | –
51 | CCOc1cc(N(CC)CC)ccc1/C=C(/C#N)c1nc2ccccc2[nH]1 | inconclusive: 126 µM [activator, partial curve, poor fit] | –
52 | CC(=O)NC(c1cccs1)c1cc(F)c2cccnc2c1O (stereo not given) | inactive | –
53 | FC(F)(F)c1cc(-c2ccccc2)nc2ncnn12 | – | inactive: 0.374%
54 | CCOC(=O)c1c(C)oc2c1c(CN1CCN(C(=O)OCC)CC1)c(O)c1ccccc12 | – | inactive: -3.77%
55 | COc1cccc(-n2c(Cc3cc(=O)[nH]c(=O)[nH]3)nnc2SCc2cccc(C(F)(F)F)c2)c1 | inconclusive: 112 µM [inhibitor, single point] | –
56 | COc1cc(/C=N/NC(=O)CC#N)ccc1Oc1nc(Cl)ncc1F | inconclusive: 100 µM [inhibitor, single point] | –
57 | N#Cc1cc(-c2ccc(Cl)cc2)cnc1Sc1ccc(F)cc1 | inconclusive: 79.4 µM [inhibitor, partial curve, poor fit] | –
58 | O=C(Cc1cc(=O)[nH][nH]1)N/N=C/C=C/c1ccccc1 | inconclusive: 22.4 µM [inhibitor, single point] | –
59 | Cc1cc(Oc2ccc(N)cn2)cc(C)c1Cl | inconclusive: 100 µM [inhibitor, single point] | –
60 | Cc1ccc(-n2nnc3c(=O)n(Cc4cccc(C)c4)cnc32)cc1 | inconclusive: 79.4 µM [inhibitor, single point] | –
61 | COc1ccc(S(=O)(=O)N2CCCCCC2)cc1C(=O)N1CCCC(C(F)(F)F)C1 (stereo not given) | inconclusive: 15.8 µM [inhibitor, single point] | –
62 | O=C(O)CSc1nc2ccccc2s1 | inconclusive: 70.8 µM [inhibitor, partial curve] | –
63 | CCCC(=O)C1=C(O)C(C(=O)OC)C(C)(C)CC1=Nc1ccc(Br)cc1 (stereo not given) | – | inactive: -11.9%
64 | CCCOC(=O)C1=C(C)NC2=C(C(=O)C(C(=O)OC)C(C)C2)C1c1ccc(N(C)C)cc1 (stereo not given) | inconclusive: 100 µM [inhibitor, single point] | –
65 | O=C(O)c1ccc(Nc2nc3ccccc3nc2NS(=O)(=O)c2ccc(F)cc2)cc1 | inconclusive: 25.1 µM [inhibitor, single point] | –
66 | Cc1ccc(CNS(=O)(=O)c2ccc(C(F)(F)F)cc2)n1C | inconclusive: 100 µM [inhibitor, single point] | –
67 | CC(Oc1ccc(Cl)cc1Cl)C(=O)/C=C/N(C)C (stereo not given) | inconclusive: 70.8 µM [inhibitor, partial curve] | –
68 | CCCCN(C)C(=O)c1cc2c(Cl)nc3ccccc3c2s1 | inconclusive: 89.1 µM [inhibitor, single point] | –
69 | CCCCN(C)CCNC(=O)CCn1nc(-c2ccc(C)cc2)ccc1=O | inconclusive: 158 µM [inhibitor, single point] | –
70 | Cc1c(Nc2cc(Cl)c3nonc3c2[N+](=O)[O-])c(=O)n(-c2ccccc2)n1C | – | inactive: -3.14%
